Assay results from PubChem BioAssay AID1347075 (National Center for Advancing Translational Sciences (NCATS), 2019).
About 5,500 (1.4%) of roughly 400,000 compounds were called active. The shares of active, inactive and inconclusive entries below differ from those in the screen. Calls come from the whole dose curve; as a rule, active = well fitted cell-killing curve with a large enough effect; inconclusive = small, poorly fitted or top-dose-only effect, or effect the other way; inactive = flat fitted curve, though single readings scatter. Potencies beside an inconclusive call are fits to weak or partial responses and may not hold up.

test: qHTS assay for MDR1-selective chemotherapeutics: Primary screen using the parental adenocarcinoma cell KB-3-1; settings: KB-3-1 viability, CellTiter-Glo ATP luminescence, 72 h; activity change, negative = cytotoxic: at 46.1 µM (top of the series); note: nearly all actives have a fitted effect of over 60% in size
Procedure, shortened: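 Cytotoxicity in the drug-sensitive parental line KB-3-1 was scored as loss of CellTiter-Glo luminescence following 72 h incubation with compound. Values come from curve fitting of normalized concentration-response data.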
% is set by controls: 0 for no effect and ±100 for the full control effect; potency is the fitted concentration of half-maximal effect.

Compound	activity change, negative = cytotoxic	Potency
CC(=O)Nc1ccc(S(=O)(=O)Nc2ccccc2C(=O)NCc2cccnc2)cc1	inconclusive: -15%	–
CCC(=NC(C)c1ccccc1)c1c(O)n(C)c(=O)n(C)c1=O (stereo not given)	–	inconclusive: 25.9 µM [cytotoxic, single point]
Cn1c(CC(=O)Nc2ccccc2F)nnc1SCC(=O)NC1=NCCS1	inactive: 3.91%	–
CC1(C)C(=O)C2(CCCC2)C(=O)OC1c1ccco1 (stereo not given)	inactive: -7.63%	–
CCOc1ccc(NS(=O)(=O)c2cc(NC(=O)c3ccc(C)cc3)ccc2Cl)cc1	–	inconclusive: 1.64 µM [cytotoxic, partial curve, poor fit]
CN1CCN(Cc2cc(Cl)c3cccnc3c2OC(=O)c2cccs2)CC1	–	inconclusive: 29.1 µM [cytotoxic, single point]
CCc1ccccc1NC(=O)C(NS(=O)(=O)c1ccc2c(c1)CCC(=O)N2)c1ccccc1 (stereo not given)	inactive: -4.52%	–
Cc1ccc(NC(=O)CN(C)C(=O)COc2ncnc3ccc(Br)cc23)cc1	–	inconclusive: 16.4 µM [rising, partial curve, poor fit]
C[C@H](NS(=O)(=O)c1ccc2c(c1)OCCCO2)C(=O)N1CCN(Cc2ccc(C#N)cc2)CC1	–	inconclusive: 23.1 µM [cytotoxic, partial curve, poor fit]
CCN1CCCC1CNS(=O)(=O)c1c(C)cc(C)cc1C (stereo not given)	inconclusive: -8.15%	–
COc1ccc(CCNC(=O)C2CC(c3cccc([N+](=O)[O-])c3)=NO2)cc1 (stereo not given)	inactive: 3.18%	–
CSc1nc(N(C)NC(=O)c2ccccc2)c2ccccc2n1	–	active: 1.03 µM
Cc1ccc(C(=O)CCNc2ccccc2)o1	inactive: -5.52%	–
O=C(Nc1nc2cc3c(cc2s1)OCO3)C1=COCCO1	–	active: 6.51 µM
O=C1S/C(=C\c2ccc(O)c([N+](=O)[O-])c2)C(=O)N1c1ccccc1Cl	inactive: -20.1%	–
COc1cc(C2C3=C(COC3=O)Oc3cc4c(cc32)OCO4)ccc1OC(C)=O (stereo not given)	–	active: 0.82 µM
CCOc1cc(S(=O)(=O)N(CC)CC)ccc1Cl	–	inconclusive: 3.66 µM [rising, full curve]
COc1ccc2c(c1)c(C(=O)N/N=C/c1ccc(Cl)cc1)c(C)n2C	–	inconclusive: 2.59 µM [rising, partial curve, poor fit]
Cn1c2c(c(=O)n(C)c1=O)C1(C(=O)Nc3ccccc31)C(C#N)=C(N)O2 (stereo not given)	–	inconclusive: 29.1 µM [cytotoxic, single point]
CCOc1ccc(C(=O)Nc2ccncc2)cc1	–	inconclusive: 9.2 µM [cytotoxic, partial curve, poor fit]
COc1ccc(CC(=O)N2CCCc3ccccc32)cc1OC	inactive: -10.9%	–
COC(=O)C1=C(C)N(Cc2ccccc2)C(=S)N[C@H]1c1ccc(Br)cc1	–	inconclusive: 20.6 µM [cytotoxic, single point]
COc1ccccc1C1C=C(c2ccccc2)Nc2nnnn21 (stereo not given)	–	active: 13 µM
CCCSc1nc2sc3c(c2c(=O)[nH]1)CCN(Cc1ccccc1)C3	inactive: -2.44%	–

Compound	activity change, negative = cytotoxic	Potency
Cc1cccc(/C=C2/Sc3ccc(C(=O)NCCN4CCCC4)cc3NC2=O)c1	inactive: -8.22%	–
COCC(C)OC(=O)c1c(N)n(-c2ccc(OC)c(OC)c2)c2nc3ccccc3nc12 (stereo not given)	inactive: -6.34%	–
Cc1nn(-c2ccccc2)c(C)c1/C=N/NC(=O)CSc1nnc(SCc2ccc(Cl)cc2)s1	–	inconclusive: 29.1 µM [cytotoxic, single point]
CC(C)(C)c1ccc(C(=O)N2CC(=O)Nc3ccc(F)cc3C2c2ccc(F)cc2)cc1 (stereo not given)	–	active: 18.4 µM
Cc1ccc(-c2csc(NC3OC(=O)c4ccccc43)n2)cc1 (stereo not given)	–	inconclusive: 23.1 µM [cytotoxic, partial curve, poor fit]
CC(C(=O)OCC(=O)Nc1ccccc1OC(F)F)N1C(=O)C2CC=CCC2C1=O (stereo not given)	inconclusive: 31.9%	–
O=P(c1ccccc1)(c1ccccc1)c1ccccc1C(Br)Br	inactive: -17.1%	–
COc1cnc(-c2ccccn2)nc1N(C)c1ccccc1	–	inconclusive: 16.4 µM [cytotoxic, single point]
Cc1cccc(CN2CCN(C3CN(Cc4cn(Cc5cccc(C(F)(F)F)c5)nn4)S(=O)(=O)C3)CC2)c1 (stereo not given)	–	inconclusive: 25.9 µM [cytotoxic, single point]
O=C(Nc1ccc(Cl)c([N+](=O)[O-])c1)C(Sc1ccccc1)c1ccccc1 (stereo not given)	–	active: 25.9 µM
CCCCn1nnnc1NCc1ccc(N(CC)CC)cc1	–	inconclusive: 29.1 µM [cytotoxic, single point]
CO[C@H]1CN(C)C(=O)c2ccc(NC(=O)C3CCC3)cc2OC[C@H](C)N(CC2CCCCC2)C[C@@H]1C	–	inconclusive: 29.1 µM [cytotoxic, single point]
COCCN(C(=O)CSc1nnc2cc(C)c3ccccc3n12)c1c(N)n(Cc2ccccc2)c(=O)[nH]c1=O	–	inconclusive: 5.8 µM [cytotoxic, full curve]
C[C@@]12C(=O)Nc3ccc(Cl)cc3C(=O)N1[C@H]1c3ccccc3OC[C@@H]1[C@@H]2c1ccccc1	–	inconclusive: 29.1 µM [cytotoxic, single point]
Cc1cc(N(C)C)cc(C)c1/C=C/c1ccnc2ccccc12	–	inconclusive: 16.4 µM [cytotoxic, single point]
C=CCN1CN(S(=O)(=O)c2ccc(OC)cc2)c2nc3ccccc3nc21	inconclusive: -30.1% [cytotoxic]	–
COc1ccc(N(C(=O)Cn2nnc(-c3ccc(Cl)cc3)n2)C(C(=O)NCC2CCCO2)c2ccc(C)cc2)cc1 (stereo not given)	–	inconclusive: 12.6 µM [cytotoxic, single point]
O=C(COc1cccc2cccnc12)N/N=C/c1ccccc1O	–	inconclusive: 29.1 µM [cytotoxic, single point]
CCn1nc(C)c(CN2CCc3c([nH]c4ccccc34)C2c2ccc(F)c(OC)c2)c1C (stereo not given)	–	inconclusive: 29.1 µM [cytotoxic, single point]
CCOc1cccc(C2NC(=S)NC(C)=C2C(=O)Nc2ccccc2)c1 (stereo not given)	–	inconclusive: 11.6 µM [cytotoxic, partial curve, poor fit]
CCCn1c(SCC(=O)NC2CCCC2)nnc1-c1ccccn1	–	inconclusive: 0.164 µM [rising, full curve]
Cc1cc(C)n(CC(=O)O)c(=O)c1[N+](=O)[O-]	inactive: -9.16%	–
N#Cc1ccccc1Sc1ccccc1C(=O)Nc1ccc2ccccc2c1	inactive: -8.34%	–
O=C(Nc1ccc2c(c1)oc1ccc(S(=O)(=O)N3CCCC3)cc12)C1CC1	–	inconclusive: 29.1 µM [cytotoxic, single point]

3 entries from above in another layout.

| Compound | activity change, negative = cytotoxic | Potency |
| --- | --- | --- |
| CSc1nc(N(C)NC(=O)c2ccccc2)c2ccccc2n1 | – | active: 1.03 µM |
| Cc1ccc(C(=O)CCNc2ccccc2)o1 | inactive: -5.52% | – |
| O=C(Nc1nc2cc3c(cc2s1)OCO3)C1=COCCO1 | – | active: 6.51 µM |

The list continues:

Compound	activity change, negative = cytotoxic	Potency
CCCNC(=O)Nc1ccc2c(c1)N(C)C(=O)c1ccccc1S2	–	inconclusive: 18.4 µM [cytotoxic, single point]
CCN1CCN(C2=C(NS(=O)(=O)c3ccccc3)C(=O)c3ccccc3C2=O)CC1	–	inconclusive: 29.1 µM [cytotoxic, single point]
COC(=O)C1=C(C)NC(C)=C(C(=O)OC)C1c1cc2ccc(C)cc2[nH]c1=O	–	inconclusive: 29.1 µM [cytotoxic, single point]
O=C(Nc1nccs1)c1cc2c(s1)CCCCC2	–	inconclusive: 23.1 µM [cytotoxic, single point]
CC(Sc1nnc(Nc2ccccc2)s1)C(=O)Nc1nc(-c2ccccc2)cs1 (stereo not given)	–	inconclusive: 11.6 µM [cytotoxic, partial curve]
Cc1ccc2[nH]c3c(N4CCc5ccccc5C4)ncnc3c2c1	–	inconclusive: 29.1 µM [cytotoxic, single point]
CC(C)Nc1nc(NCCOc2ccccc2)c2sccc2n1	inactive: -14.7%	–
COc1ccc(NC(=S)NNC(=O)CNc2ccc(Cl)cc2)cc1	inactive: 7.77%	–
COC(=O)C1=CN(c2ccc(OC)cc2OC)C(N)=C(C#N)C1c1cccc([N+](=O)[O-])c1 (stereo not given)	–	active: 2.06 µM
Cc1ccc(-c2nc3ncccn3c2Nc2ccccc2C)o1	inactive: -0.0756%	–
Nc1cc(Br)cc2c1[nH]c(=O)c1ccccc12	inactive: 18.8%	–
COc1cc(OC)cc(C(=O)N/N=C/c2ccc(OC)c(COc3ccc4ccccc4c3)c2)c1	–	inconclusive: 20.6 µM [cytotoxic, single point]
CCc1cc2c(=O)c(-c3cnn(-c4ccccc4)c3)coc2c(CN2CCOCC2)c1O	–	inconclusive: 0.517 µM [rising, full curve]
CC(C)(C)c1ccc(Oc2ccc(NC(=O)c3cccs3)cn2)cc1	–	inconclusive: 18.4 µM [cytotoxic, single point]
NC(=O)CC1C(=O)N(c2ccc(Cl)cc2)C(=S)N1NC(=O)c1cccc(F)c1 (stereo not given)	inactive: -11.8%	–
Cc1cccc(C)c1OC(=O)C(c1ccccc1)c1ccccc1	–	inconclusive: 29.1 µM [cytotoxic, single point]
CCOC(=O)C(CC)(CC)C(=O)/C=C/c1cccc(Br)c1	–	inconclusive: 29.1 µM [cytotoxic, single point]
COc1ccccc1N1CCN(C(=O)CCNS(=O)(=O)c2ccc3c(c2)CCN3C(=O)C2CC2)CC1	inactive: -6.42%	–
CN(C)S(=O)(=O)c1cccc(NC(=O)CSc2nc3ccccc3n2-c2ccccc2)c1	–	inconclusive: 20.6 µM [cytotoxic, single point]
O=S(=O)(CCOc1ccccc1)c1nc2ccccc2[nH]1	–	inconclusive: 29.1 µM [cytotoxic, single point]
CCc1ccc2nc(N(CCN(C)C)C(=O)/C=C/c3cccs3)sc2c1	–	inconclusive: 29.1 µM [cytotoxic, single point]
Cc1cc(C)n2nc(SCC(=O)Nc3cccc(C(F)(F)F)c3)nc2n1	–	inconclusive: 16.4 µM [cytotoxic, single point]
